# Assay results reported in US20040229366A1 (University of California, published 2004).
# Legend:
# [1] = target: T1, CAL bait (GAL4 (1-147) fused to the intact CAL coding region in pBI-880) (Arabidopsis thaliana); test: yeast two-hybrid library screen with full-length CAL bait, HIS3 and lacZ reporters
# T1 construct: range 1-147; also called CAULIFLOWER; full-length CAL cDNA as bait
# Protocol: Yeast two-hybrid screens were performed to identify candidate genes whose products interact with AP1 and CAL. The two-hybrid library screens were performed in the YPB2 strain [MATa ara3 his3 ade2 lys2 trp1 leu2, 112 can^r gal4 gal80 LYS2::GAL1-HIS3, URA3::(GAL1UAS17mers)-lacZ]. Yeast were transformed using a modified version of the lithium acetate method of Schiest1 and Gietz, Curr. Genet. 16, 339-346 (1989).
# The two-hybrid cDNA expression library was constructed in the pBI771 (prey) vector using tissue of whole plants at different stages. The bait constructs were prepared by inserting the intact CAL coding region and a truncated form of AP1 into the pBI-880 vector (a variant of pPC62 described in Chevray and Nathans Proc. Natl. Acad. Sci USA 5789-5793 (1992); Kohalmi et al., Plant. Mol. Biol. Man. M1, 1-30 (1998)) by inserting the corresponding coding region in-frame at the 3′ end of the GAL4 (1-147) sequence contained in the centromere LEU2 plasmid. These baits tested negative for the ability to activate transcription of both reporters, alone as well as in combination with each the prey vector and an inert control prey, the Arabidopsis cruciferin seed storage protein.
# The transformants were selected on supplemented synthetic dextrose medium lacking leucine, tryptophan and histidine but containing 5 mM 3-amino-1,2,4-triazole. […]
# [2] = target: T1, CAL bait (GAL4 (1-147) fused to the …); test: yeast two-hybrid retest with CAL bait
# Source text: To confirm the specificity of the observed interactions, the longest and shortest clone of each class was transformed back into a yeast strain that contained either the CAL bait, the bait vector, or an inert control bait, cruciferin. The strains containing the CAL bait tested positive for both B-Gal activity and HIS prototrophy. The strains containing the bait vector or the cruciferin bait were negative in both assays, as they were not able to grow on plates lacking histidine and the yeast colonies were completely white in the B-Gal assay.
Binder,binding result [1],binding result [2]
"SUPPRESSOR OF CO OVEREXPRESSION 1 (SOC1) clones isolated in the CAL two-hybrid screen (seven clones) (other, Group of seven library clones with different 5' ends; also called AGL20; second class; not shown: fusion partner encoded by prey vector pBI771) MVRGKTQMKRIENATSRQVTFSKRRNGLLKKAFELSVLCDAEVSLIIFSPKGKLYEFASSNMQDTIDRYLRHTKDRVSTKPVSEENMQHLKYEAANMMKKIEQLEASKRKLLGEGIGTCSIEELQQIEQQLEKSVKCIRARKTQVFKEQIEQLKQKEKALAAENEKLSEKWGSHESEVWSNKNQESTGRGDEESSPSSEVETQLFIGLPCSSRK",binds,–
"longest SOC1 clone from the CAL two-hybrid screen (other, also called AGL20; longest clone of each class; not shown: fusion partner encoded by prey vector pBI771) MVRGKTQMKRIENATSRQVTFSKRRNGLLKKAFELSVLCDAEVSLIIFSPKGKLYEFASSNMQDTIDRYLRHTKDRVSTKPVSEENMQHLKYEAANMMKKIEQLEASKRKLLGEGIGTCSIEELQQIEQQLEKSVKCIRARKTQVFKEQIEQLKQKEKALAAENEKLSEKWGSHESEVWSNKNQESTGRGDEESSPSSEVETQLFIGLPCSSRK",–,binds
